Experimental findings from patent publication EP4663204A1, “COMPOUNDS USEFUL FOR THE MODULATION OF THE ACTIVITY OF STING” (Sulis Therapeutics ApS, priority 2024, dated 2025) are described below.

Chains of the proteins cited; added tags and fusions are not shown.
UniProt Q86WV6, whole entry: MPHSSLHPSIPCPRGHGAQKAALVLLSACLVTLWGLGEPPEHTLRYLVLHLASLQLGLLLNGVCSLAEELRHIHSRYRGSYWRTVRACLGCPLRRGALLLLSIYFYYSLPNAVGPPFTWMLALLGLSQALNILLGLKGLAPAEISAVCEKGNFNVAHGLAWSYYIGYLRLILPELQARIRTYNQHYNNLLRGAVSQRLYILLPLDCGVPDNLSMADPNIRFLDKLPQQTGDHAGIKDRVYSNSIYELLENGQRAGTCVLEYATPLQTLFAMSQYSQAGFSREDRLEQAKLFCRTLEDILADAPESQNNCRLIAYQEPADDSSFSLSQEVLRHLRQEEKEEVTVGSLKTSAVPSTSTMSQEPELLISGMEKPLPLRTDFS

The match of structure and compound is tentative.

The target of this assay is STING (Homo sapiens, UniProt Q86WV6). Briefly: Inhibition of STING-agonist-induced IFN-β release in HFF-1 cells (ELISA). The following applies: read-out: Inhibition of STING-agonist-induced IFN-β release in HFF-1 cells, EC50; 24h pre-incubation; 0.3 µM diABZI; supernatants after 6h; * incomplete inhibition. The procedure: To evaluate cellular effects of test compounds, we assessed inhibition of STING-agonist-induced IFN-β release in human foreskin fibroblasts HFF-1 cells (ATCC, SCRC-1041). Cells were seeded at a density of 10.000 cells/well in 96-well Nunclon Delta surface treated culture plate in DMEM growth medium (supplemented with 10% FBS, 1% Pen-strep). Cells were incubated over-night at 37°C 5% CO2 to allow adhesion. Next morning growth medium was renewed and a 7x concentration 3-step dilution series of test compounds (2,1% DMSO) diluted in growth medium were added to the appropriate well. Final DMSO concentration was 0.3%. Cells were further incubated for 24h followed by addition of 8x concentration of GSK STING agonist (CAS number: 2138299-34-8; diABZi c3*; diABZI), final concentration was 0.3 µM. […]
Cell supernatants were analysed for IFN-β release using DuoSet human IFN-β ELISA (R&D systems, DY-814) following manufactures protocol except using 96-well, half-volume plates from Corning and subsequently use half volume for all steps throughout the protocol. […] Signals were measured using BioTek Synergy H1 plate reader at 450nm and 570nm (reference).
Raw data values were quantified based on the standard curve using blank subtracted Δ450nm-570nm values generated using the Gen5 software connected to the plate reader. […]

Turning to `CCn1nc(C)cc1C(=O)Nc1nc2cc(C(N)=O)ccc2n1CCC(CCn1c(NC(=O)c2cc(C)nn2CC)nc2cc(C(N)=O)ccc21)OCC(=O)NCCOCCOCCOCCOCCC(=O)NCCOCCOCCOCCOCC(=O)N[C@H]1C[C@@H](C(=O)N[C@@H]2CCCc3ccccc32)N(C(=O)[C@@H](NC(=O)[C@H](C)NC)C2CCCCC2)C1`, the EC50 lay within 1000 to 5000 nM.
